## Percent effect of library compounds

Measurements from “University of Dundee, Small-Polar-MMV Screening Library” (2021), ChEMBL document CHEMBL3988442.

Mtb glucose medium: 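Growth of Mycobacterium tuberculosis over 3 days (7H9 medium with glucose and tyloxapol); the read-out is not stated. Concentration: 500 µM. The record gives no direction; compounds that gave an IC50 in retests scored well above the rest, so higher reads as more growth inhibition. About 18,000 compounds were tested under these conditions; 7.9% (about 1,400) showed 50% or more at least once.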
Mtb cholesterol medium: 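Phenotypic screen: M. tuberculosis growth, cholesterol and DPPC medium, 4 days; the read-out is not stated. Tested at 500 µM. Direction is inferred from retests: higher values go with more growth inhibition. Size under these conditions: about 18,000 compounds, about 900 of them at 50% or above in at least one test.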

Results are given as percent effect. How 0% and 100% were set is not recorded. Most values in the screen are low, and negative values occur. The compounds are a random part of those screened.

compound,Mtb glucose medium,Mtb cholesterol medium
COc1ccc(C(=O)N(C)C2CCN(C)CC2)cc1,-6.004%,-8.07%
CSc1ncccc1C(=O)NCCSc1nncn1C,4.72%,3.245%
COc1ccccc1NC(=O)c1n[nH]cc1Cl,0.9142%,13.82%
CN(C)C(=O)C1CSc2ccccc21 (centres unmarked),-3.91%,37.75%
CC(C#N)CN(C)c1ncnc2c1cnn2CCO (centres unmarked),2.149%,-7.782%
COc1coc(C(=O)NCc2ccccc2)cc1=O,36.6%,30.95%
COCCc1noc(CN2CC[C@H](CO)[C@H](O)C2)n1,7.656%,-9.114%
CCN(CC)C(=O)CCc1c(C)nn(C)c1C,9.402%,6.405%
CS(=O)(=O)c1ccccc1C(=O)NCC1CCCO1 (centres unmarked),-1.689%,-11.32%
Cn1cc(C2CSCCN2Cc2cncnc2)cn1 (centres unmarked),19.56%,-0.1408%
COCCOC1(CN)CCOCC1,-5.134%,5.869%
O=C(NCCc1cn[nH]c1)C(O)c1ccc(Cl)cc1 (centres unmarked),0.1695%,7.982%
NCC(O)CN1CCc2ccccc2C1 (centres unmarked),28.61%,3.858%
Cn1nccc1[C@H]1OCC[C@@H]1NC(=O)C1CC=CC1,13.65%,9.389%
O=C1COC[C@H]2CNCC[C@H]2N1Cc1ccccc1,39.93%,21.96%
CCSCCCNC(=O)NCC1CCS(=O)(=O)CC1,7.767%,-4.011%
Clc1ccc2nnc(C3CCCO3)n2n1 (centres unmarked),28.27%,36.02%
CCNC(=O)C1CCCN1C(=O)Nc1ccccc1 (centres unmarked),3.5%,-5.795%
COc1c(CNCCNC(=O)C2CC2)c(C)nn1C,5.122%,7.294%
O=C1CN(CC(=O)N2CCc3sccc3C2)CCN1,-10.98%,-15.2%
NCC1CCN(CC(F)F)CC1,-7.805%,-22.71%
CCc1ncc(C(=O)N2C[C@@H]3CCCN[C@@H]3C2)cn1,-4.039%,-10.95%
CNC(=O)C1CCN(C(=O)CCc2cccs2)CC1,51.98%,35.15%
O=C(NC1CC1)c1ccc(Cn2cncn2)cc1,-6.379%,-13.94%
CCOc1ccc(C(=O)NCCCO)cc1OCC,43.67%,34.86%
CC(=O)N1CCN(C(=O)c2nccnc2N)CC1,21.64%,2.485%
NS(=O)(=O)CC1CCN(c2ncc(Br)cn2)CC1,78.36%,88.88%
COC(=O)CSc1nnc2ccccn12,-11.51%,-27.48%
CC(=O)c1ccc(C(=O)NCCN2CCCOC2=O)s1,-19.32%,-9.295%
Cc1c[nH]c(C(C)NC(=O)CCCN2CCCC2)n1 (centres unmarked),20.07%,7.019%
O=C1CCCCN1Cn1cnc2c(Br)cccc2c1=O,30.28%,11.95%
CN(C)CCCn1cnc2c1c(=O)n(C)c(=O)n2C,-2.559%,8.687%
Cc1ncsc1C(=O)Nc1cc(Br)c(=O)n(C)c1,-2.982%,-2.898%
c1cncc(C2=NCCCC2)c1,-205.4%,-216.3%
CS(=O)(=O)N(CC(N)=O)c1cc(Cl)cc(Cl)c1,-10.04%,-13.89%
COc1cncc(C(NC(=O)CSC)[C@H]2C[C@@H](O)C2)c1 (some centres unmarked),10.21%,5.42%
Cc1cc(NC(=O)NC[C@@H]2C[C@H](F)CN2)n(C(C)C)n1,4.345%,3.424%
CS(=O)(=O)c1nccn1CCOc1ccccc1,30.5%,41.13%
CC(C)C1C(=O)NCCN1C (centres unmarked),5.77%,5.798%
Cn1c(C(C)(C)N)nc2ccccc21,12.3%,0.6859%
Cn1c(SCC(N)=O)nc2ccsc2c1=O,6.343%,-11.55%
COC(=O)C(N)CSc1cc(C)nc2ccccc12 (centres unmarked),46.18%,-9.161%
O=C1NC(=O)[C@@H]2CNC[C@H]12,-4.656%,-6.128%
Cc1cncc(NCc2ncc[nH]2)c1,3.34%,-4.441%
CN(CC(N)=O)Cc1csc(Br)c1,23%,13.65%
O=C(C1CCCOC1)N1CCOc2cccc(F)c21 (centres unmarked),40.57%,21.74%
Cc1ncc(C(=O)N[C@H]2CC[C@H](O)CC2)c(O)c1Br,-10.74%,-8.397%
O=C1CN(c2ccnc3cc(Br)ccc23)CCN1,49.2%,31.56%
CCS(=O)(=O)N(C)Cc1nc(C(C)C)no1,25.14%,12.53%
NCc1cc(Oc2ccc(F)cc2)ccn1,-13.43%,-23.45%
CSCCOC(=O)c1ccn(C(C)C)n1,77.38%,56.06%
Cn1ccnc1CN1CCC2(CC(=O)NC2=O)C1 (centres unmarked),6.699%,6.025%
CCn1cncc1C1CCCCN1 (centres unmarked),12.12%,1.595%
COc1ccc(CNc2ccncc2F)cc1C#N,77.6%,-20.99%
NC(=O)c1ccc(CNS(=O)(=O)N2CCOCC2)cc1,0.3233%,-19.07%
COc1ccc(CC(C)N)c(OC)c1OC (centres unmarked),47%,10.36%
Cn1cc(CNC(=O)c2c(Br)cnn2C)cn1,16.15%,26.95%
C=C(C)CS(=O)(=O)NC1CCN(c2ccccn2)C1 (centres unmarked),47.85%,37.5%
COC1CCN(C(=O)CCc2csc(C)n2)CC1,36.18%,28.62%
COc1cc(Br)c(CN)cc1OC,13.43%,4.522%
CCNc1nc(N2CCCC2)nc2c1cnn2C,-5.637%,-5.924%
CC(C)(C)CC(CO)NC(=O)c1ccon1 (centres unmarked),13.47%,-3.526%
Cc1ccc(NC(=O)N(C)C[C@H](O)CO)cc1Cl,23.01%,9.63%
Cc1ncc(CN2CCC(N(C)CCCO)CC2)s1,-1.076%,-9.921%
CS(=O)(=O)NCc1nc(CCc2ccccc2)no1,44.17%,25.16%
CCC(CNC(=O)Nc1cn[nH]c1)N1CCCC1 (centres unmarked),0.6245%,8.128%
NCc1cc(Oc2cccc(Cl)c2)ccn1,-20.05%,-23.07%
CC(C)C(=O)NC1CCCNC1 (centres unmarked),-4.958%,-3.246%
OCCCN1CCN(c2nccc3occc23)CC1,-2.762%,-11.69%
COc1ccnc(NCc2ccco2)n1,36.58%,15.08%
Cn1ncc(CNC(=O)Nc2ccccn2)c1N,6.065%,8.59%
N#Cc1cccc(C(=O)NCC(O)C2CCOCC2)c1 (centres unmarked),-0.8343%,-1.046%
O=C(Nc1cn[nH]c1)Nc1cccc(OCC(F)F)n1,10.9%,-19.7%
CN(CCN1CCCC1=O)C(=O)c1ncccc1Br,6.357%,3.824%
CN1CCN(c2cc(C3CC(N)C3)nc(N)n2)CC1 (centres unmarked),7.789%,-5.121%
Cc1ccccc1C(C)N1CCNC(=O)CC1 (centres unmarked),27.06%,8.205%
CCCC(N)CNS(=O)(=O)c1cc(C)cc(F)c1 (centres unmarked),47.51%,35.42%
CC(C)C(N)CCN(C)C(=O)Cc1cccs1 (centres unmarked),1.709%,-0.06029%
CCc1cnc(NC(=O)N2CCC(O)C2)s1 (centres unmarked),12.88%,4.273%

The first 6 entries again:

compound	Mtb glucose medium	Mtb cholesterol medium
COc1ccc(C(=O)N(C)C2CCN(C)CC2)cc1	-6.004%	-8.07%
CSc1ncccc1C(=O)NCCSc1nncn1C	4.72%	3.245%
COc1ccccc1NC(=O)c1n[nH]cc1Cl	0.9142%	13.82%
CN(C)C(=O)C1CSc2ccccc21 (centres unmarked)	-3.91%	37.75%
CC(C#N)CN(C)c1ncnc2c1cnn2CCO (centres unmarked)	2.149%	-7.782%
COc1coc(C(=O)NCc2ccccc2)cc1=O	36.6%	30.95%